Measured values: publication PMC7699956
Results are given in words; binding and its absence hold for the method and conditions named. In cells and extracts the contact can be indirect. Binding can be weak; no strength is given. For part of these data: Where a sequence is shown, tags or fusion partners need not be part of it.

Amino acid sequences for entries named in this document (tags omitted). A change or cut given only in a name is not applied to a line headed by its entry.
UniProt Q6K8D4: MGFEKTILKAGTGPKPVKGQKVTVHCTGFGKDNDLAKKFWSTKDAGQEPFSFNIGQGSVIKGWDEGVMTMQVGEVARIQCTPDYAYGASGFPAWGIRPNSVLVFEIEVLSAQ

Legend:
[1] = target: T1, GST-AtYchF1 (Arabidopsis thaliana) (UniProt Q9SA73); test: pull-down; E. coli cell lysate with about 100 ug MBP-OsFKBP12 (or MBP tag only) incubated 1 h with E. coli cell lysate with about 100 ug GST-AtYchF1; MagneGST Glutathione Particles; ten washes with 20 mM Tris pH 7.5, 150 mM NaCl; western blot with anti-MBP and anti-GST antibodies; the results call both proteins purified
T1 sequence: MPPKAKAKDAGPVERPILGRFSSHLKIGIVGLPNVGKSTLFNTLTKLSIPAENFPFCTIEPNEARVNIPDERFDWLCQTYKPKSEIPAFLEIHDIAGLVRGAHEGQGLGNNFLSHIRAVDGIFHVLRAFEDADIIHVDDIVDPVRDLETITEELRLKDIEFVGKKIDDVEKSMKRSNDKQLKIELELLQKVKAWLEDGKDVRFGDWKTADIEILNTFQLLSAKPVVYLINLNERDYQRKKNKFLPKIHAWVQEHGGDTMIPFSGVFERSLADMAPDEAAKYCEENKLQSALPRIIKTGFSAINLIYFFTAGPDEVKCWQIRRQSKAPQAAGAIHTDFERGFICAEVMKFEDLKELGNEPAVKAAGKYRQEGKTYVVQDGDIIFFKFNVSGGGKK

[2] = target: GST-OsFKBP12 (Oryza sativa) (UniProt Q6K8D4); test: pull-down; E. coli cell lysate with about 100 ug GST-FKBP12 (or GST tag only) incubated 1 h with 500 ug soluble protein from rice leaves (Aichi Asahi); MagneGST Glutathione Particles; five washes with 20 mM Tris pH 7.5, 150 mM NaCl; western blot with anti-OsYchF1 and anti-GST antibodies
[3] = target: nYFP-OsFKBP12 (Oryza sativa); test: split reporter; BiFC with nYFP and cCFP fusions in protoplasts of tobacco BY-2 suspension cells, PEG-mediated transformation, 16 h, confocal microscopy

Molecule: MBP-OsFKBP12 (from UniProt Q6K8D4)
- binding [1]: binds

B1: native OsYchF1 (protein, UniProt Q6Z1J6 1-394)
chain: MPPKASKKDAAPAERPILGRFSSHLKIGIVGLPNVGKSTFFNIVTKLSIPAENFPFCTIDPNEARVYVPDERFDWLCQLYKPKSEVSAYLEINDIAGLVRGAHAGEGLGNAFLSHIRAVDGIFHVLRAFEDKEVTHIDDSVDPVRDLETIGEELRLKDIEFVQNKIDDLEKSMKRSNDKQLKLEHELCEKVKAHLEDGKDVRFGDWKSADIEILNTFQLLTAKPVVYLVNMSEKDYQRKKNKFLPKIHAWVQEHGGETIIPFSCAFERLLADMPPDEAAKYCAENQIASVIPKIIKTGFAAIHLIYFFTAGPDEVKCWQIRRQTKAPQAAGTIHTDFERGFICAEVMKFDDLKELGSESAVKAAGKYRQEGKTYVVQDGDIIFFKFNVSGGGKK
- binding [2]: binds

B2: cCFP-OsYchF1 (protein, UniProt Q6Z1J6 1-394)
chain: MPPKASKKDAAPAERPILGRFSSHLKIGIVGLPNVGKSTFFNIVTKLSIPAENFPFCTIDPNEARVYVPDERFDWLCQLYKPKSEVSAYLEINDIAGLVRGAHAGEGLGNAFLSHIRAVDGIFHVLRAFEDKEVTHIDDSVDPVRDLETIGEELRLKDIEFVQNKIDDLEKSMKRSNDKQLKLEHELCEKVKAHLEDGKDVRFGDWKSADIEILNTFQLLTAKPVVYLVNMSEKDYQRKKNKFLPKIHAWVQEHGGETIIPFSCAFERLLADMPPDEAAKYCAENQIASVIPKIIKTGFAAIHLIYFFTAGPDEVKCWQIRRQTKAPQAAGTIHTDFERGFICAEVMKFDDLKELGSESAVKAAGKYRQEGKTYVVQDGDIIFFKFNVSGGGKK
- binding [3]: binds
